Data as given in PubChem BioAssay AID504804 (Drosophila RNAi Screening Center, 2011)
Assay: 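dsRNAs that improve Kc cell survival under doxorubicin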 (primary screen). Cells: Drosophila Kc cells. Reagent: long dsRNA against Drosophila genes, 0.5 µg dsRNA per well. Timing: 96 h (48 h knock-down, then 48 h drug). Conditions: doxorubicin 5 µg/ml for 48 h, added 48 h after dsRNA. Detection: 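Viability measured as cellular ATP by luminescence after 48 h knock-down then 48 h doxorubicin at 5 µg/ml; unnormalised plate counts for each replicate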. Scale: raw ATP luminescence: higher = more viable cells, protection from doxorubicin. Call rule: 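Active when both duplicate wells lie at least 2 SD above the plate mean and protection is confirmed by rescreening and independent dsRNAs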.
The deposit covers about 19,000 reagents; below is a random part of those with a known target gene and a result. In the full data, 47 (0.25%) were called active. 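Signals are raw, not normalised; exact z-scores behind calls not deposited; actives needed confirmation, so some wells reaching 2 SD are inactive.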 Unmarked entries are inactive. Reagent sequences are not shown.

| target | DRSC id | raw ATP luminescence, replicate 1 | raw ATP luminescence, replicate 2 |
| --- | --- | --- | --- |
| flw | DRSC17992 | 2.89e5 | 2.59e5 |
| flw | DRSC18774 | 2.41e5 | 2.22e5 |
| Pcyt2 | DRSC08531 | 47013 | 61353 |
| Root | DRSC15972 | 92230 | 76420 |
| CG2818 | DRSC00540 | 1.13e5 | 80657 |
| mAcon1 | DRSC01853 | 77967 | 76200 |
| CG18210 (retired record) | DRSC19089 | 2.43e5 | 2.86e5 |
| CG17807 | DRSC04296 | 58420 | 59357 |
| CG10383 | DRSC02050 | 79047 | 56623 |
| Miox | DRSC10747 | 76090 | 76753 |
| CG5217 | DRSC15740 | 43040 | 54680 |
| Rfx | DRSC16820 | 53673 | 55973 |
| Nhe1 | DRSC00762 | 90283 | 84227 |
| Spc105R | DRSC11663 | 66417 | 61847 |
| CG31407 | DRSC12761 | 65843 | 58400 |
| CG5986 | DRSC15931 | 49143 | 53723 |
| meep | DRSC07948 | 1.65e5 | 1.51e5 |
| Galphai | DRSC11168 | 46287 | 43443 |
| CG4338 | DRSC15564 | 59193 | 20483 |
| Pgcl | DRSC18815 | 47240 | 55680 |
| ms(2)34Fe | DRSC01905 | 69043 | 96027 |
| CG34316 | DRSC13080 | 2.17e5 | 1.98e5 |
| Nhe2 | DRSC03172 | 60247 | 58057 |
| Nhe2 | DRSC03377 | 64710 | 50910 |
| CG10147 | DRSC09706 | 69790 | 69370 |
| CG14221 | DRSC19578 | 3.55e5 | 3.43e5 |
| CG12325 | DRSC06130 | 60283 | 50920 |
| GluRIIA | DRSC03334 | 21583 | 29977 |
| Pyroxd1 | DRSC02098 | 58967 | 74450 |
| CG4459 | DRSC15582 | 53990 | 57200 |
| Ho | DRSC14939 | 62943 | 31980 |
| CG6028 | DRSC15951 | 60600 | 48113 |
| Twdlalpha | DRSC19914 | 3.15e5 | 3.14e5 |
| Wdr33 | DRSC12162 | 92990 | 43903 |

Quoted from the listing (2 entries):
| target | DRSC id | raw ATP luminescence, replicate 1 | raw ATP luminescence, replicate 2 |
| --- | --- | --- | --- |
| ms(2)34Fe | DRSC01905 | 69043 | 96027 |
| CG34316 | DRSC13080 | 2.17e5 | 1.98e5 |
